Laboratory results reported in patent US20120077732A1, “CYCLIC PEPTIDES AND USES THEREOF” (SYDNEY WEST AREA HEALTH SERVICE, priority 2008, published 2012).
Part of at least one peptide drawing is inferred or uncertain, most often the ends. For part of these data: For at least one compound, name, drawing or mass did not settle the structure. No end group written: not given here.

What was measured:
2B4.11 hybridoma = test: Antigen presentation assay (IL-2 produced in response to antigen); type: cell-based; settings: for IL2 %: 50 μM, relative to DMSO control (100%)
allergic mice (OVA/OVA) [1] = test: Allergic airways disease (OVA) model: inflammatory cells in BALF; type: in vivo; design: key to Airway lymphocytes / Airway eosinophils / Airway macrophages / Airway inflammatory cells / Airway neutrophils: nc: no change; ↑: increase; ↓: decrease
allergic mice (OVA/OVA) [2] = test: Allergic airways disease (OVA) model: local and systemic OVA-specific cytokine production; type: in vivo; design: key to Spleen OVA-stimulated IL-5 / Spleen OVA-stimulated IL-13 / LN OVA-stimulated IL-5 / LNOVA stimulated IL-13: nc: no change; ↑: increase; ↓: decrease
allergic mice (OVA/OVA) [3] = test: Allergic airways disease (OVA) model: airways hyperreactivity to methacholine; type: in vivo; design: key to Airway Resistance / Airway Compliance: nc: no change; ↑: increase; ↓: decrease; settings: for airway resistance in response to methacholine challenge / dynamic compliance in response to methacholine challenge: 200 μg s.c. during challenge, allergic mice
[4] = 200 μg s.c. during challenge, allergic mice
[5] = 200 μg/100 μl s.c. during OVA challenge, compared to OVA/OVA alone

## GLRILLLKV [CP, GLRILLLKV, reference compound]
2B4.11 hybridoma; at equivalent doses (500), ±SD
  IL-2 production, % (CP normally): 37.08%±10.49
2B4.11 hybridoma; fifth IL2 column (individual experiment in triplicate)
  IL2 %: 17.4%
2B4.11 hybridoma; first IL2 column (individual experiment in triplicate)
  IL2 %: 20.9%
2B4.11 hybridoma; fourth IL2 column (individual experiment in triplicate)
  IL2 %: 13.5%
2B4.11 hybridoma; second IL2 column (individual experiment in triplicate)
  IL2 %: 25%
2B4.11 hybridoma; third IL2 column (individual experiment in triplicate)
  IL2 %: 20.9%
Allergic mice (OVA/OVA) [1]; [4]
  eosinophils in BALF: reduction
  neutrophils in BALF: reduction
  total inflammatory cell counts in bronchoalveolar lavage fluid (BALF): significantly decreased
Allergic mice (OVA/OVA) [1]; [5]
  Airway eosinophils: ↓
  Airway inflammatory cells: ↓
  Airway lymphocytes: nc
  Airway macrophages: nc
  Airway neutrophils: ↓
Allergic mice (OVA/OVA) [2]; [4]
  locally produced (peribronchial lymph node derived) IL-5: significant decrease
  systemic (spleen derived) IL-5: significant decrease
  systemic (spleen derived) IL-13: significant decrease
Allergic mice (OVA/OVA) [2]; [5]
  LN OVA-stimulated IL-5: ↓
  LNOVA stimulated IL-13: nc
  Spleen OVA-stimulated IL-5: ↓
  Spleen OVA-stimulated IL-13: ↓
Allergic mice (OVA/OVA) [3]
  airway resistance in response to methacholine challenge: significantly decreased
  dynamic compliance in response to methacholine challenge: increased
Allergic mice (OVA/OVA) [3]; [5]
  Airway Compliance: ↑
  Airway Resistance: ↓

## C[C@H]1C[C@@H]2[C@H]([C@@H](O)C[C@@]3(C)[C@H]2CC[C@]3(O)C(=O)CO)[C@@]2(C)C=CC(=O)C=C12 [methylprednisolone, reference compound]
Allergic mice (OVA/OVA) [1]; [4]
  eosinophils in BALF: decrease
  macrophages in BALF: decrease
  neutrophils in BALF: decrease
  total inflammatory cell counts in bronchoalveolar lavage fluid (BALF): significantly decreased
Allergic mice (OVA/OVA) [2]; [4]
  systemic (spleen derived) IL-5: significant decrease
  systemic (spleen derived) IL-13: significant decrease
Allergic mice (OVA/OVA) [3]
  airway resistance in response to methacholine challenge: significantly decreased
  dynamic compliance in response to methacholine challenge: increased
